# This is one part of the list. Single values are uncertain, as repeats are few or missing.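 The apoptosis fraction was the count of cleaved-PARP antibody-stained nuclei relative to all DNA-stained nuclei, imaged in 1,536-well plates. Screening doses were set so most cells survived, and baseline and induced cleaved-PARP levels vary greatly across cell lines.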
# Tested on: UACC62
# Assay: cleaved PARP positive nuclei fraction relative to DMSO control; melanoma cells; higher = more apoptosis
# Details: library dose: low library concentration; 72 h
row,SMILES,cleaved PARP positive nuclei fraction
1,"CS(=O)(=O)c1ccc(C(=O)Nc2ccc(Cl)c(-c3ccccn3)c2)c(Cl)c1 [vismodegib] + O=C(O)c1ccc2c(c1)nc(Nc1cccc(Cl)c1)c1ccncc12 [CX4945] (first compound 1 µM, partner dose 0.4 µM)",48.3%
2,"CC(=O)O[C@@]12CO[C@@H]1C[C@H](O)[C@@]1(C)C(=O)[C@H](O)C3=C(C)[C@@H](OC(=O)[C@H](O)[C@@H](NC(=O)OC(C)(C)C)c4ccccc4)C[C@@](O)([C@@H](OC(=O)c4ccccc4)[C@H]21)C3(C)C [Docetaxel] + CCc1ccc(CCOc2ccc(CC3SC(=O)NC3=O)cc2)nc1 [pioglitazone] (first compound 0.0001 µM, partner dose 2 µM)",2000%
3,"Cn1cnc2c(F)c(Nc3ccc(Br)cc3Cl)c(C(=O)NOCCO)cc21 [selumetinib] + Cn1c(Nc2ccc(C(F)(F)F)cc2)nc2cc(Oc3ccnc(-c4ncc(C(F)(F)F)[nH]4)c3)ccc21 [CHIR265] (first compound 0.015 µM, partner dose 0.08 µM)",209%
4,"NC1(c2ccc(-c3nc4ccn5c(=O)[nH]nc5c4cc3-c3ccccc3)cc2)CCC1 + c1cc(-c2cnn3cc(-c4ccc(OCCN5CCCCC5)cc4)cnc23)ccn1 [Dorsomorphin] (first compound 0.4 µM, partner dose 0.4 µM)",257%
5,"CC(=O)O[C@@]12CO[C@@H]1C[C@H](O)[C@@]1(C)C(=O)[C@H](O)C3=C(C)[C@@H](OC(=O)[C@H](O)[C@@H](NC(=O)OC(C)(C)C)c4ccccc4)C[C@@](O)([C@@H](OC(=O)c4ccccc4)[C@H]21)C3(C)C [Docetaxel] + CC(=O)c1c(C)c2cnc(Nc3ccc(N4CCNCC4)cn3)nc2n(C2CCCC2)c1=O [palbociclib] (first compound 0.0001 µM, partner dose 0.04 µM)",465%

# From the supplement of paper PMC4604168 (melanoma cell lines)
